From publication PMC4802085

The chains behind the UniProt entries cited, without tags or fusion partners. Where a name states a change or a piece, a line headed by the entry shows the natural chain unless it says otherwise. A line that says so, or that is headed by a name, gives the form on record, which may keep a tag or linker. Residues count along the entry.
FLAG-PGRMC1 wild-type (a.a.44–195) (O00264, residues 44-195): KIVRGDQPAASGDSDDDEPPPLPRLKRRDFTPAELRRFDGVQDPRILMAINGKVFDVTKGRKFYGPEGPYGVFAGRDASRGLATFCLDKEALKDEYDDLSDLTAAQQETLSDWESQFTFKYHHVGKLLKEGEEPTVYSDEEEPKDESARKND
FLAG-PGRMC1 Y113F mutant (a.a.44–195) (O00264, form named): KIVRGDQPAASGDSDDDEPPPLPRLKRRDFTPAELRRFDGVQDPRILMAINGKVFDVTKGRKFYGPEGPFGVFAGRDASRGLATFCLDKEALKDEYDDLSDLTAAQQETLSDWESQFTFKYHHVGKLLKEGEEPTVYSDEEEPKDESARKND
UniProt P08684: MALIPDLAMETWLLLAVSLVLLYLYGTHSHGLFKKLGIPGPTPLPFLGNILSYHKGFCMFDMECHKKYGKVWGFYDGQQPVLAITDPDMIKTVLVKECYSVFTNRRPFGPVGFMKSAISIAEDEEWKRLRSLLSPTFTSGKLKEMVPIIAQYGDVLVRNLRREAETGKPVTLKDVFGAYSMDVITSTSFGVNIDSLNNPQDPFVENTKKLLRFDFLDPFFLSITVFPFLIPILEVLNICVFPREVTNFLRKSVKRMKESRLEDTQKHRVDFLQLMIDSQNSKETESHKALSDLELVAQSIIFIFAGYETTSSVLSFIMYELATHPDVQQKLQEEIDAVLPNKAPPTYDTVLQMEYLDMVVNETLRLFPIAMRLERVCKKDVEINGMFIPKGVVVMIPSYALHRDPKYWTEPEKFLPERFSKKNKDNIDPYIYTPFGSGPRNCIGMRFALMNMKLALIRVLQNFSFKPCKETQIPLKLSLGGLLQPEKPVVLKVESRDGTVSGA

Legend:
[1] = biological target: FLAG-PGRMC1 wild-type (a.a.44–195) (human) (UniProt O00264); experiment: co-IP; in vitro binding assay: 1 μg CYP1A2 or CYP3A4 (microsomal formulation containing cytochrome b5 and cytochrome P450 reductase) with 10 μg FLAG-PGRMC1 (a.a.44–195) treated with 50 μmol l^−1 haemin, anti-FLAG (M2) agarose; 20 mmol l^−1 HEPES-NaOH (pH 7.9), 100 mmol l^−1 NaCl, 0.2 mmol l^−1 EDTA, 10% glycerol, 0.1% NP40, room temperature; only the target purified
[2] = biological target: FLAG-PGRMC1 Y113F mutant (a.a.44–195) (human) (UniProt O00264); experiment: as above
[3] = biological target: FLAG-PGRMC1 wild-type (a.a.44–195) (human) (UniProt O00264); experiment: co-IP; in vitro binding assay as a18 with FLAG-PGRMC1 in apo form (no haemin); only the target purified

- binding [1]: binds
- binding [2]: no binding
Substance: Recombinant CYP3A4 (from UniProt P08684) (enzyme)
- binding [3]: no binding (only without haem (apo form))

No constants are given. Whether binding was seen depends on the method and setting. In cells and extracts the contact can be indirect. For part of these data: Binding calls can cover weak binding; strength is not graded here.
